These are yes or no findings as the source states them, for the method shown. Binding seen in cells or lysates may run through a third protein. Some entries that bind do so weakly or less than the wild type.
target: Estrogen Receptor alpha (ERα) (human (endogenous in MCF7, human PDX tumours and human breast tumours)) (UniProt P03372); assay: proximity ligation; PLA in methanol-fixed MCF7 cells with primary antibodies against ERα and the partner; untreated cells, and cells treated with vehicle or 100 nM OHT (2 h, 6 h)

By UniProt entry, the sequences of proteins in these tests, tags left out.
UniProt Q92793: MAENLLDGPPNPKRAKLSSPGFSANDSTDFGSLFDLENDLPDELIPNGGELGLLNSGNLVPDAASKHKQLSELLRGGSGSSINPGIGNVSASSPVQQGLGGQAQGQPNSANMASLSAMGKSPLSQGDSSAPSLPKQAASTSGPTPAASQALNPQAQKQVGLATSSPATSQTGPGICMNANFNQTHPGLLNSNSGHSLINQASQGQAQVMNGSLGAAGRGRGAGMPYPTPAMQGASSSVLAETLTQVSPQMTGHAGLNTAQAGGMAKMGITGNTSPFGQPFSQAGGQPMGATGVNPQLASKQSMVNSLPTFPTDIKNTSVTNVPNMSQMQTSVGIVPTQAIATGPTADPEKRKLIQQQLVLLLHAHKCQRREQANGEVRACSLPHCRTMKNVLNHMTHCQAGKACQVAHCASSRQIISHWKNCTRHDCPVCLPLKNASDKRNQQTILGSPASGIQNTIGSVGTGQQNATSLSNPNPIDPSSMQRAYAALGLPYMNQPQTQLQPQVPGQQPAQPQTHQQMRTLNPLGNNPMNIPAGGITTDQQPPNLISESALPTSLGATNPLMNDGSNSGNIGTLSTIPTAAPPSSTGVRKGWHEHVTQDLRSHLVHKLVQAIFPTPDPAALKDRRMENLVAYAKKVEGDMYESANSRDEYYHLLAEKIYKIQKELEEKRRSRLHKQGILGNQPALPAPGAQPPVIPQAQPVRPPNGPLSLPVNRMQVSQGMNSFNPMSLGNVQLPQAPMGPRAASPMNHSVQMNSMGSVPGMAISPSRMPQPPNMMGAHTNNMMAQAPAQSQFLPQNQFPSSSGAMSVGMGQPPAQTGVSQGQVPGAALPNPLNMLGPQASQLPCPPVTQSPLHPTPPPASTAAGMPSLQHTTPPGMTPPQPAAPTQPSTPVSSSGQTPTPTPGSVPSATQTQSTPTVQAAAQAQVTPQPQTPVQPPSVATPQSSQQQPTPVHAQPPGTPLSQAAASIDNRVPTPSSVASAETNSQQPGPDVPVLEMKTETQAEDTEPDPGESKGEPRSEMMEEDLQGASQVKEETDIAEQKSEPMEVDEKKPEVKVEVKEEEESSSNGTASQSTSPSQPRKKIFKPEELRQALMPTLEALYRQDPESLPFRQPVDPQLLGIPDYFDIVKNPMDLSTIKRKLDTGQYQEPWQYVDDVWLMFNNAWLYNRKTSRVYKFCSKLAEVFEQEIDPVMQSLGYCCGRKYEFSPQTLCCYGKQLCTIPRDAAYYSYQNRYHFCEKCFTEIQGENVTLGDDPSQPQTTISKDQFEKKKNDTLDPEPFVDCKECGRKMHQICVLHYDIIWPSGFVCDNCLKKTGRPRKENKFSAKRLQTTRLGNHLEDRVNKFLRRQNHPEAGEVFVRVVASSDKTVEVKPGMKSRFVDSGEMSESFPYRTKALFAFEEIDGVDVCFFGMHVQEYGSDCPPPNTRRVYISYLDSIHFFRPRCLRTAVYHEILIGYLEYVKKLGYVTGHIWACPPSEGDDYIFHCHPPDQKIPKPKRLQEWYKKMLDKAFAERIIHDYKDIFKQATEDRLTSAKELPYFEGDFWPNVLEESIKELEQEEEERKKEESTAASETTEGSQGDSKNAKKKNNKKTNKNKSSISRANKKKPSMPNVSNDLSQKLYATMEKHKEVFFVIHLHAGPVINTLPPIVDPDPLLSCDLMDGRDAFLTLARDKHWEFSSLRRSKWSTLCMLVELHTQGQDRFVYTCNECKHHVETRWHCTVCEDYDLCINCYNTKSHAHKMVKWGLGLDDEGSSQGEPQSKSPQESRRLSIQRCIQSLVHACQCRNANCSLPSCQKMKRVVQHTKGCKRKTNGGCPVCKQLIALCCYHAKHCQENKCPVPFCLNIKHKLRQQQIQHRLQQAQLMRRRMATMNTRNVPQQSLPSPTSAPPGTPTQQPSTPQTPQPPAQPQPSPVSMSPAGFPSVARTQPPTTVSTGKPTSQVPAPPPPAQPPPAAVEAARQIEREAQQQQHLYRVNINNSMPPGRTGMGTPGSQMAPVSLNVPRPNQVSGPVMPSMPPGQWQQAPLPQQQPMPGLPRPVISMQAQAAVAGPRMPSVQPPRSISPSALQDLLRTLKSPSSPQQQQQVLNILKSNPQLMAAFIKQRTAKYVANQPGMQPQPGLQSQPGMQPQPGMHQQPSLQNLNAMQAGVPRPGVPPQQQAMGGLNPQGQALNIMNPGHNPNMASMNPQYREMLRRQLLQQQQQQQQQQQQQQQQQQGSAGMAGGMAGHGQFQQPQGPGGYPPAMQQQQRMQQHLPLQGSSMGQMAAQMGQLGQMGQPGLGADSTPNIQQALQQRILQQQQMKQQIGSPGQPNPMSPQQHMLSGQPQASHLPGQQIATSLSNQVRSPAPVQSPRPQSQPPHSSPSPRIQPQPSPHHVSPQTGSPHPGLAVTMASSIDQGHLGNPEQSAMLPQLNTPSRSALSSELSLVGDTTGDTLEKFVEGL
UniProt Q13185: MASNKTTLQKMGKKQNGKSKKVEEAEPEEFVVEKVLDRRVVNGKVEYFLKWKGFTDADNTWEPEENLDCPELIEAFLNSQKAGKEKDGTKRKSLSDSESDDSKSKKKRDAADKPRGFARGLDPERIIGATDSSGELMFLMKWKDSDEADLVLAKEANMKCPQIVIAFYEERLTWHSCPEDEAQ
UniProt Q8TAQ2: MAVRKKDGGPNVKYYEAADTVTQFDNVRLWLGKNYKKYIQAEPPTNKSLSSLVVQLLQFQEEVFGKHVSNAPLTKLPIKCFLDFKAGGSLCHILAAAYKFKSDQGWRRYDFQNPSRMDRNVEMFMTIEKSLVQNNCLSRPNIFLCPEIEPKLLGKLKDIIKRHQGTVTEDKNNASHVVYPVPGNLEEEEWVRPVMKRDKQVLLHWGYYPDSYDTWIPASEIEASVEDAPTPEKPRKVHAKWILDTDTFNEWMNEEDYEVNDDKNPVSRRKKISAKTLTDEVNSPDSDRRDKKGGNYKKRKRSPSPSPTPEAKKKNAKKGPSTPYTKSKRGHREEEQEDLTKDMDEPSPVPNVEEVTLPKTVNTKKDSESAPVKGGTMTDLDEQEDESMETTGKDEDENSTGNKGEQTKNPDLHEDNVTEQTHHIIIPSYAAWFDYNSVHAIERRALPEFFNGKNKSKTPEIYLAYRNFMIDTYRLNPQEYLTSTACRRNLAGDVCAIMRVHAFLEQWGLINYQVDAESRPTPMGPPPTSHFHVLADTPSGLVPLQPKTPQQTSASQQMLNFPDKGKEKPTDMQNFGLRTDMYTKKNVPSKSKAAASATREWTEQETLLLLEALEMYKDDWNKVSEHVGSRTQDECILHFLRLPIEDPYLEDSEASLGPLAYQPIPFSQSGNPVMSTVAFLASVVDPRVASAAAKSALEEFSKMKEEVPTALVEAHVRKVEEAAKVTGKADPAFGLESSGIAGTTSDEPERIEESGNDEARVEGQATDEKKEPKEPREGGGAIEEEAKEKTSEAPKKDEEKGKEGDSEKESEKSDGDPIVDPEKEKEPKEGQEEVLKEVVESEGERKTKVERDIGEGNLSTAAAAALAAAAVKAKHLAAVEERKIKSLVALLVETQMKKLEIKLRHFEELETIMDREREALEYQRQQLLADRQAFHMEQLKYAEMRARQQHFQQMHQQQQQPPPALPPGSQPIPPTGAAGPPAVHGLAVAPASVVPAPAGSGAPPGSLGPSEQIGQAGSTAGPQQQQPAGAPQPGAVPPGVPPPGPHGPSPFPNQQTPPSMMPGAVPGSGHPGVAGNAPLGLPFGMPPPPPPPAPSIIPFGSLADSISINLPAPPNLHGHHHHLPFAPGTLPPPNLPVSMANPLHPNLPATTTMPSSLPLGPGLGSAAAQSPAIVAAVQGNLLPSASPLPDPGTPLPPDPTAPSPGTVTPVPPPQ

binding, binds:
CBP (CREB-binding protein) (from UniProt Q92793 1-2442)
CBX3 (HP1γ) (from UniProt Q13185 1-183)
NIPBL (from UniProt Q6KC79 1-2804)
SMARCC2 (BAF170) (from UniProt Q8TAQ2 1-1214)
